Consider ten molecules from patent US20100143371A1 (published 2010).

The chains behind the UniProt entries cited, without tags or fusion partners. Residues count along the entry.
UniProt P51813, residues 417-675: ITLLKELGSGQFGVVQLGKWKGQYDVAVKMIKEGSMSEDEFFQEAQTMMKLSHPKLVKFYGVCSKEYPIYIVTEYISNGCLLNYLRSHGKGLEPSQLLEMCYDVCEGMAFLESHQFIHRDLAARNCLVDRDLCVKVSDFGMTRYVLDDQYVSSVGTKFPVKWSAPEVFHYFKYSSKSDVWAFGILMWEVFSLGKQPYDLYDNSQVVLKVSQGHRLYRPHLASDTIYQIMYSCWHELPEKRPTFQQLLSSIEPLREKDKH

No constants are given. Whether binding was seen depends on the method and setting. For some of these results: Binding seen in cells or lysates may run through a third protein. Some binding calls cover weakened binding; strength is not graded here.

In one test the target is GST-Etk kinase domain (human, UniProt P51813 417-675). Put plainly: ELISA, purified domain antibody on immobilised GST-Etk. For orientation: In an ELISA, binding on a coated surface is turned into a signal by an enzyme label.
Test [1] deals with T1, endogenous Etk of NSR cells (mouse, UniProt P97504 1-651).
T1 sequence (looked up): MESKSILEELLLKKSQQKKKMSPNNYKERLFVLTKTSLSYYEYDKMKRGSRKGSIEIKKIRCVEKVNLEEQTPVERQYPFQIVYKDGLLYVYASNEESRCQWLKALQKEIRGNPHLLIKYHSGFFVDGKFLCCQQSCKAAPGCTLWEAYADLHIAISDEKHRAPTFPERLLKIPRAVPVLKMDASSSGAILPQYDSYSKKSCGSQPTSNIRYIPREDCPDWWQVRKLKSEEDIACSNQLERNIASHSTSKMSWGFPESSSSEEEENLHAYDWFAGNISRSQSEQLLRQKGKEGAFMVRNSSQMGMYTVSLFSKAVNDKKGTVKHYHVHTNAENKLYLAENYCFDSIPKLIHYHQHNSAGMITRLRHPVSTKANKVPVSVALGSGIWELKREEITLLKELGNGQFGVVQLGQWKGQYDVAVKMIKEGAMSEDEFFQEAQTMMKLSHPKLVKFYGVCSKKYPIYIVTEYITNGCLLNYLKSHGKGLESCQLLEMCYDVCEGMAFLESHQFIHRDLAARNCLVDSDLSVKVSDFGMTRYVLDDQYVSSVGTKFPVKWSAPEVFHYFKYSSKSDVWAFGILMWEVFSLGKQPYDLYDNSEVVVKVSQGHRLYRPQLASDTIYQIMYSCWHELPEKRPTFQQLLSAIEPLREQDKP
The test is described as follows: co-immunoprecipitation from NSR cell lysate (protein L pull-down, anti-Etk blot; anti-Etk pull-down, anti-c-Myc blot).

B1: L5 soluble single domain antibody (antibody, V domains shown)
VL: DIQMTQSPSSLSASVGDRVTITCRASQGIKMKLNWYQQKPGKAPKLLIYNTSHLQSGVPSRFSGSGSGTDFTLTISSLQPEDFATYYCQQHKTRPDTFGQGTKVEIKR
notes: Single human kappa light chain variable domain (domain antibody), expressed from pDOM5 in E. coli BL21, purified on protein L, about 15 kDa; the tie to L5 rests on the order of the list and the numbering (CDRs 4, 6, 8 follow 2); not shown: c-Myc tag (detected with anti-Myc-HRP)
In the case of B1, the binding entry with GST-Etk kinase domain is recorded as “binds”.

B2: K5 intrabody (L5 expressed from pcDNA3.1-L5 in NSR cells) (antibody, V domains shown, not shown: small tags and cut ends)
VL: DIQMTQSPSSLSASVGDRVTITCRASQGIKMKLNWYQQKPGKAPKLLIYNTSHLQSGVPSRFSGSGSGTDFTLTISSLQPEDFATYYCQQHKTRPDTFGQGTKVEIKR
Turning to B2, the binding result in test [1] was “binds”.

B3: K9 intrabody (L9 expressed from pcDNA3.1-L9 in NSR cells) (antibody, V domains shown, not shown: small tags and cut ends)
VL: DIQMTQSPSSLSASVGDRVTITCRASQAIKNKLGWYQQKPGKAPKLLIYKASYLQSGVPSRFSGSGSGTDFTLTISSLQPEDFATYYCQQMKSRPNTFGQGTKVEIKR
As to B3, the binding entry in test [1] is recorded as “binds”.

B4: L9 soluble single domain antibody (antibody, V domains shown)
VL: DIQMTQSPSSLSASVGDRVTITCRASQAIKNKLGWYQQKPGKAPKLLIYKASYLQSGVPSRFSGSGSGTDFTLTISSLQPEDFATYYCQQMKSRPNTFGQGTKVEIKR
notes: Single human kappa light chain variable domain, from pDOM5 in E. coli BL21, protein L purified; not shown: c-Myc tag (detected with anti-Myc-HRP)
B4: in the test with GST-Etk kinase domain, the binding entry is given as “binds”.

B5: L15 soluble single domain antibody (antibody, V domains shown)
VL: DIQMTQSPSSLSASVGDRVTITCRASQNIKTKLNWYQQKPGKAPKLLIYRVSTLQSGVPSRFSGSGSGTDFTLTISSLQPEDFATYYCQQTKKRPFTFGQGTKVEIER
notes: as for B4
Turning to B5, the binding result with GST-Etk kinase domain is reported as “binds”.

B6: L11 soluble single domain antibody (antibody, V domains shown)
VL: DIQMTQSPSSLSASVGDRVTITCRASQWIFTELAWYQQKPGKAPKLLIYNASYLQSGVPSRFSGSGSGTDFTLTISSLQPEDFATYYCQQTFTPPITFGQGTKVEIKR
notes: Tie to L11 rests on list order and numbering; not shown: c-Myc tag (detected with anti-Myc-HRP)
Consider B6, for which, in the test with GST-Etk kinase domain, the binding result was “binds”.

B7: K7 intrabody (L7 expressed from pcDNA3.1-L7 in NSR cells) (antibody, V domains shown, not shown: small tags and cut ends)
VL: DIQMTQSPSSLSASVGDRVTITCRASQRIFTRLEWYQQKPGKAPMLLIYNVSHLQSGVPSRFSGSGSGTDFTLTISSLQPEDFATYYCQQTEIIPITFGQGTKVEIKQ
As to B7, the binding result in test [1] is “binds”.

B8: L7 soluble single domain antibody (antibody, V domains shown)
VL: DIQMTQSPSSLSASVGDRVTITCRASQRIFTRLEWYQQKPGKAPMLLIYNVSHLQSGVPSRFSGSGSGTDFTLTISSLQPEDFATYYCQQTEIIPITFGQGTKVEIKQ
notes: as for B4
Regarding B8, the binding entry with GST-Etk kinase domain is recorded as “binds”.

B9: K11 intrabody (L11 expressed from pcDNA3.1-L11 in NSR cells) (antibody, V domains shown, not shown: small tags and cut ends)
VL: DIQMTQSPSSLSASVGDRVTITCRASQWIFTELAWYQQKPGKAPKLLIYNASYLQSGVPSRFSGSGSGTDFTLTISSLQPEDFATYYCQQTFTPPITFGQGTKVEIKR
As for B9, the binding result in test [1] is “binds”.

B10: L12 soluble single domain antibody (antibody, V domains shown)
VL: DIQMTQSPSSLSASVGDRVTITCRASQWIFDRLHWYQQKPGKAPTLLIYNSSTLQSGVPSRFSGSGSGTDFTLTISSLQPEDFATYYCQQTKSRPSTFGQGTKVEIKR
notes: as for B4
Regarding B10, in the test with GST-Etk kinase domain, the binding entry is recorded as “binds”.
